What all share (assay): glycan array binding signal (z-score within array); higher = stronger binding
Details in all cases: glycan notation: IUPAC condensed, linker removed

Assay [1] concerns the target Gal(b1-4)GlcNAc(b1-3)Gal(b1-4)GlcNAc(b1-3)Gal(b1-4)GlcNAc(b1-3)Gal(b1-4)GlcNAc(b1-2)Man(a1-3)[Gal(b1-4)GlcNAc(b1-3)Gal(b1-4)GlcNAc(b1-3)Gal(b1-4)GlcNAc(b1-3)Gal(b1-4)GlcNAc(b1-2)Man(a1-6)]Man(b1-4)GlcNAc(b1-4)GlcNAc. A digest of the protocol: (§1)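 Glycan array binding is given as a within-array Z-score, which can be read as non-binding when negative. The arrays, 3228 of them, came from the Consortium for Functional Glycomics database and were retained only where the protein sequence was available. Z-scores were averaged across arrays of the same protein sequence at different concentrations or buffers and across linkers.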

The target of assay [2] is Gal(b1-4)GlcNAc(b1-3)Gal(b1-4)GlcNAc(b1-3)Gal(b1-4)GlcNAc(b1-3)Gal(b1-4)GlcNAc(b1-2)Man(a1-3)[Gal(b1-4)GlcNAc(b1-3)Gal(b1-4)GlcNAc(b1-3)Gal(b1-4)GlcNAc(b1-3)Gal(b1-4)GlcNAc(b1-2)Man(a1-6)]Man(b1-4)GlcNAc(b1-4)[Fuc(a1-6)]GlcNAc. A digest of the protocol:
as §1

In assay [3] the target is Gal(b1-4)GlcNAc(b1-3)Gal(b1-4)GlcNAc(b1-3)Gal(b1-4)GlcNAc(b1-3)Gal(b1-4)GlcNAc(b1-2)[Gal(b1-4)GlcNAc(b1-3)Gal(b1-4)GlcNAc(b1-3)Gal(b1-4)GlcNAc(b1-3)Gal(b1-4)GlcNAc(b1-6)]Man(a1-6)[Gal(b1-4)GlcNAc(b1-3)Gal(b1-4)GlcNAc(b1-3)Gal(b1-4)GlcNAc(b1-3)Gal(b1-4)GlcNAc(b1-2)Man(a1-3)]Man(b1-4)GlcNAc(b1-4)[Fuc(a1-6)]GlcNAc. A digest of the protocol: as §1
Assay [4] addresses Gal(b1-4)GlcNAc(b1-3)Gal(b1-4)GlcNAc(b1-3)Gal(b1-4)GlcNAc(b1-3)Gal(b1-4)GlcNAc(b1-3)Gal(b1-4)GlcNAc(b1-2)Man(a1-3)[Gal(b1-4)GlcNAc(b1-3)Gal(b1-4)GlcNAc(b1-3)Gal(b1-4)GlcNAc(b1-3)Gal(b1-4)GlcNAc(b1-3)Gal(b1-4)GlcNAc(b1-2)Man(a1-6)]Man(b1-4)GlcNAc(b1-4)GlcNAc. In outline:
as §1

In assay [5] the target is Gal(b1-4)GlcNAc(b1-3)Gal(b1-4)GlcNAc(b1-3)Gal(b1-4)GlcNAc(b1-3)Gal(b1-4)GlcNAc(b1-3)Gal(b1-4)GlcNAc(b1-2)Man(a1-3)[Gal(b1-4)GlcNAc(b1-3)Gal(b1-4)GlcNAc(b1-3)Gal(b1-4)GlcNAc(b1-3)Gal(b1-4)GlcNAc(b1-3)Gal(b1-4)GlcNAc(b1-2)Man(a1-6)]Man(b1-4)GlcNAc(b1-4)[Fuc(a1-6)]GlcNAc. In outline:
as §1

For assay [6], the target named is Gal(b1-4)GlcNAc(b1-3)Gal(b1-4)GlcNAc(b1-3)Gal(b1-4)GlcNAc(b1-3)Gal(b1-4)GlcNAc(b1-3)Gal(b1-4)GlcNAc(b1-2)[Gal(b1-4)GlcNAc(b1-3)Gal(b1-4)GlcNAc(b1-3)Gal(b1-4)GlcNAc(b1-3)Gal(b1-4)GlcNAc(b1-3)Gal(b1-4)GlcNAc(b1-6)]Man(a1-6)[Gal(b1-4)GlcNAc(b1-3)Gal(b1-4)GlcNAc(b1-3)Gal(b1-4)GlcNAc(b1-3)Gal(b1-4)GlcNAc(b1-3)Gal(b1-4)GlcNAc(b1-2)Man(a1-3)]Man(b1-4)GlcNAc(b1-4)[Fuc(a1-6)]GlcNAc. In outline: as §1

In assay [7] the target is Gal(b1-4)GlcNAc(b1-3)Gal(b1-4)GlcNAc(b1-3)Gal(b1-4)GlcNAc(b1-3)Gal(b1-4)GlcNAc(b1-3)Gal(b1-4)GlcNAc(b1-3)Gal(b1-4)GlcNAc(b1-2)Man(a1-3)[Gal(b1-4)GlcNAc(b1-3)Gal(b1-4)GlcNAc(b1-3)Gal(b1-4)GlcNAc(b1-3)Gal(b1-4)GlcNAc(b1-3)Gal(b1-4)GlcNAc(b1-3)Gal(b1-4)GlcNAc(b1-2)Man(a1-6)]Man(b1-4)GlcNAc(b1-4)GlcNAc. In outline: as §1
The target of assay [8] is Gal(b1-4)GlcNAc(b1-3)Gal(b1-4)GlcNAc(b1-3)GalNAc. In outline:
as §1

Assay [9] addresses Gal(b1-4)GlcNAc(b1-3)Gal(b1-4)GlcNAc(b1-3)[Gal(b1-4)GlcNAc(b1-3)Gal(b1-4)GlcNAc(b1-6)]GalNAc. In outline: as §1
In assay [10] the target is Gal(b1-4)GlcNAc(b1-3)Gal(b1-4)GlcNAc(b1-6)[Gal(b1-3)]GalNAc. In outline: as §1
In assay [11] the target is Gal(b1-4)GlcNAc(b1-3)Gal(b1-4)[Fuc(a1-3)]GlcNAc(b1-3)Gal(b1-4)[Fuc(a1-3)]GlcNAc. A digest of the protocol: as §1
Assay [12] has as its target Gal(b1-4)GlcNAc(b1-3)GalNAc. A digest of the protocol: as §1
Assay [13] concerns the target Gal(b1-4)GlcNAc(b1-3)[Fuc(a1-3)GlcNAc(b1-6)]Gal(b1-4)Glc. In outline: as §1
Assay [14] addresses Gal(b1-4)GlcNAc(b1-3)[Gal(b1-4)GlcNAc(b1-6)]Gal(b1-4)GlcNAc. A digest of the protocol: as §1
Assay [15] deals with Gal(b1-4)GlcNAc(b1-3)[GlcNAc(b1-6)]Gal(b1-4)GlcNAc. In outline: as §1
For assay [16], the target named is Gal(b1-4)GlcNAc(b1-6)Gal(b1-4)GlcNAc. In outline:
as §1

Assay [17] has as its target Gal(b1-4)GlcNAc(b1-6)GalNAc. A digest of the protocol:
as §1

The target of assay [18] is Gal(b1-4)GlcNAc(b1-6)[Gal(b1-3)]GalNAc. In outline: as §1
Assay [19] deals with Gal(b1-4)GlcNAc(b1-6)[Gal(b1-4)GlcNAc(b1-3)]GalNAc. In outline: as §1
A further assay has as its target Gal(b1-4)GlcNAc6P. A digest of the protocol:
as §1

The target of another assay is Gal(b1-6)Gal. In outline: as §1
The target of the next assay is Gal3S(b1-3)GalNAc. In outline:
as §1

The next assay concerns the target Gal3S(b1-3)GlcNAc. A digest of the protocol: as §1

The list shows a part of the results.

B1: Ovorubin (Pomacea canaliculata), J7I2T6 (protein)
chain: MFVATSLLLAIATLVVRASPHNYLIMDIEPPKSVSERDILNLLSPLQVKHSFRVTGSTRLLIVIRLDAQSYEKLDEITVPGKVEVIPAVNMADTMERCGVSWPRVELTDDNVTLFESESTLTDVTKEQLKAMLIGYGEHMSGLLQAHRFEYYQAAGATPHRHFVFVNSVPDEIEVFGREGVDIWGGPGEFVVKPQYVTRI
For B1, the “glycan array binding signal (z-score)” value in [1] is -0.132; in assay [2], 0.326; in assay [3] it was 2.18; in [4], 1.6; in [5], 0.92; in assay [6], 2.67. Further, the “glycan array binding signal (z-score)” value in assay [7] was 0.062; in assay [8] it was -0.072; in assay [9] it was -0.199; in [10] it was -0.3; in assay [11], -0.444; in assay [12] it was -0.423. For the same molecule, the “glycan array binding signal (z-score)” value in assay [13] was -0.438; in assay [14], -0.984; in assay [15], -1.08; in assay [16], 0.458; in assay [17], 0.534; in [18] it was 0.113. In addition, the “glycan array binding signal (z-score)” value in assay [19] was 1.29; in the assay with Gal(b1-4)GlcNAc6P it was -0.461; with Gal(b1-6)Gal it was -0.193; with Gal3S(b1-3)GalNAc, 0.802; with Gal3S(b1-3)GlcNAc, 0.578.
